The target in the test is Smad4, HA-tagged (human (by the printed RefSeq NM_005359.5; not said in words)) (UniProt Q13485). The test can be described thus: co-IP; HEK293T cells co-transfected with FLAG-IFITM3 and Smad4-HA; lysis buffer 20 mM MOPS pH 7.5, 0.15 M NaCl, 0.5% CHAPS, 1 mM EDTA, 1 mM DTT, protease inhibitors; anti-FLAG M2 or anti-HA with Magne Protein G beads; Western blot; with or without additional TGF-β stimulation. Background: Immunoblotting shows a protein as a band on a membrane.

Sequences of proteins named here, by UniProt entry; tags and fusion partners are left off.
UniProt Q13485: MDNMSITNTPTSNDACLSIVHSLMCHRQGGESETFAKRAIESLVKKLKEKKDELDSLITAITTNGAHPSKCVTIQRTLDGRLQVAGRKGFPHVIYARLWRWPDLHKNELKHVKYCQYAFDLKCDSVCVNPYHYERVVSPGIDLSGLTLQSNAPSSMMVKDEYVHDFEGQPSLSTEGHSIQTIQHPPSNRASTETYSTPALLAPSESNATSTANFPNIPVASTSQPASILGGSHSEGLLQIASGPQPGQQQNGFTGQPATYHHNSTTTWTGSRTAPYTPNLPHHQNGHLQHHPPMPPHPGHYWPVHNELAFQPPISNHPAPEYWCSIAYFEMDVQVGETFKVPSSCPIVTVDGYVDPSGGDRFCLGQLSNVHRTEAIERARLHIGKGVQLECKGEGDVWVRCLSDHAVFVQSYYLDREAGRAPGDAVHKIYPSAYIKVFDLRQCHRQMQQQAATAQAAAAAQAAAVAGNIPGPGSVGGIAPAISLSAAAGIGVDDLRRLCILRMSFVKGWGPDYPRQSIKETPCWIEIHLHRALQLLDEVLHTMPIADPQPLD
UniProt Q01628: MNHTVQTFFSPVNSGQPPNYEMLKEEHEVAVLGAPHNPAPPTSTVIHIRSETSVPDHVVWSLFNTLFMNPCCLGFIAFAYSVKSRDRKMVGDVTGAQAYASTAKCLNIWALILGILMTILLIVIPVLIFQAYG

This note sets out measurements from PMC6609682.

Results are given in words; binding and its absence hold for the method and conditions named. In cells and extracts the contact can be indirect. Some results given as binding are weak or reduced against the parent protein; the word gives no strength.

As to “Interferon-inducible Transmembrane Protein 3 (IFITM3), FLAG-tagged (from UniProt Q01628 1-133)”, the binding result was “binds”.
